Assay results: PubChem BioAssay (NCATS)
The inconclusive results got no clear call from the source; some entries with a clear call stand among them for comparison. Potencies of inconclusive entries are doubtful fits and often do not repeat. The source made the active and inactive calls. Calls follow the shape of the dose curve; as a rule, active = well fitted cell-killing curve with a large enough effect; inconclusive = small, poorly fitted or top-dose-only effect, or effect the other way; inactive = no such curve, though single readings can be large or run the other way.
Potency is read from the fitted curve at half-maximal effect.

Test: Quantitative High-Throughput drug screen in 47 multiple myeloma cell lines against the NCATS MIPE library collection: MM1R_ATCC cell viability assay (AID 1918981); also: nearly all actives have a fitted effect of over 35% in size
Details: MM1R multiple myeloma cells, CellTiter-Glo viability, 48 h; series mostly up to 45.8 µM
Description: PI: Beverly A. Mock Ph.D.
Laboratory of Cancer Biology and Genetics,
Center for Cancer Research, National Cancer Institute,
National Institute of Health, Bethesda, Maryland
Drug resistance and disease progression are common in multiple myeloma (MM) patients, underscoring the need for new therapeutic combinations. […] We hypothesized that effective combinations would reduce MYC expression and enhance p16 activity. […] These preclinical data identify potentially useful drug combinations for evaluation in drug-resistant MM and reveal potential mechanisms of combined drug sensitivity.
Described herein is the primary MIPE qHTS used to cherrypick compounds. Validated compounds were then further tested for potential synergistic activiy.
[1] Peat TJ, Gaikwad SM, Dubois W, Gyabaah-Kessie N, Zhang S, Gorjifard S, Phyo Z, Andres M, Hughitt VK, Simpson RM, Miller MA, Girvin AT, Taylor A, Williams D, D'Antonio N, Zhang Y, Rajagopalan A, Flietner E, Wilson K, Zhang X, Shinn P, Klumpp-Thomas C, McKnight C, Itkin Z, Chen L, Kazandijian D, Zhang J, Michalowski AM, Simmons JK, Keats J, Thomas CJ, Mock BA. Drug combinations identified by high-throughput screening promote cell cycle transition and upregulate Smad pathways in myeloma. Cancer Lett. 2023 Aug 1;568:216284. doi: 10.1016/j.canlet.2023.216284. Epub 2023 Jun 24. PMID: 37356470; PMCID: PMC10408729.
SEQUENCE No. (e.g., 1, 2, 3, etc.); […] (e.g., Cells, Incubation, Reagent, etc.); VALUE and DESCRIPTION.
1; Cells; 5 uL; white, solid bottom 1536-well Greiner assay plate.
2; Compounds; 23 nL; Kalypsis pin tool (Wako USA) equipped with a 1536-well pin head to transfer to the assay plates.
3; Incubation; 48 hours; 37C incubation.
4; Reagent;5uL; CellTiter Glo (Promega).
5; Detector; 425V; Luminescence; Viewlux PerkinElmer.
NOTES (numbers refer to Sequence numbers above)
1. The cell-based screening methods employed in this study were like those previously published. Briefly, the corresponding myeloma cell lines were screened in 1,536-well plates with 500 cells, 5-uL per well for inhibition of cell viability (assessed by measuring ATP levels with CellTiterGlo).
2. NCATS MIPE 4.0 library of approved and investigational drugs were added using the Kalypsis pin tool. Wells treated with DMSO only for 100% viability and media only for 0% viability were used as controls.
3. The assay plates were covered and incubated for 48 hours in a 37C, 5% CO2 incubator with controlled humidity.
4. After 48 hours, CellTilter-GloTM luminescent substrate mix (Promega) reagent was added to the assay plate and plates we incubated for 5 min at room temperature.
5. Signal was measured as median relative luminescence units on a ViewLux (PerkinElmer) multiplate reader.
[1] Heske CM, Davis MI, Baumgart JT, Wilson K, Gormally MV, Chen L, Zhang X, Ceribelli M, Duveau DY, Guha R, Ferrer M, Arnaldez FI, Ji J, Tran HL, Zhang Y, Mendoza A, Helman LJ, Thomas CJ. Matrix Screen Identifies Synergistic Combination of PARP Inhibitors and Nicotinamide Phosphoribosyltransferase (NAMPT) Inhibitors in Ewing Sarcoma. Clin Cancer Res. 2017 Dec 1;23(23):7301-7311. doi: 10.1158/1078-0432.CCR-17-1121. Epub 2017 Sep 12. PMID: 28899971; PMCID: PMC6636827.
For `CCCCCCCN(CC)CCCC(O)c1ccc(NS(C)(=O)=O)cc1` (stereo not given), the Potency was “inactive”. In the case of `CCN(CC)CCCCNc1ncc2cc(-c3cc(OC)cc(OC)c3)c(NC(=O)NC(C)(C)C)nc2n1`, the Potency is reported as active: 23.5 µM. In the case of `O=C(Nc1cccc(C(F)(F)F)c1)Nc1cc(S(=O)(=O)NC2CC2)ccc1-c1ccsc1`, the Potency is reported as active: 20.9 µM. In the case of `CS(=O)(=O)c1ccc(C(=O)Nc2ccc(Cl)c(-c3ccccn3)c2)c(Cl)c1`, the Potency is reported as “inactive”. For `COc1ccnc2[nH]cc(C(=O)C(=O)N3CCN(C(=O)c4ccccc4)C[C@@H]3C)c12`, the Potency was “inactive”. With `CCOC(=O)N1CCN([N+]([O-])=NOc2cc(ON=[N+]([O-])N3CCN(C(=O)OCC)CC3)c([N+](=O)[O-])cc2[N+](=O)[O-])CC1` the Potency was active: 2.09 µM. In the case of `C#Cc1cccc(Nc2ncnc3cc(OCCOC)c(OCCO)cc23)c1`, the Potency is reported as inconclusive: 26.4 µM [cytotoxic, single point]. In the case of `O=C(O)CCC=CCC[C@@H]1[C@H](N2CCCCC2)[C@@H](O)C[C@@H]1OCc1ccc(-c2ccccc2)cc1`, the Potency is reported as “inactive”. In the case of `Cc1c(C)c2c(c(C)c1O)CCC(C)(COc1ccc(CC3SC(=O)NC3=O)cc1)O2` (stereo not given), the Potency is reported as “inactive”. With `CC(C)Oc1cc(Nc2nc(N[C@@H](C)c3ccc(F)cn3)ncc2Cl)[nH]n1` the Potency was active: 26.4 µM. In the case of `O=C(O)c1ccc(Nc2ncc3c(n2)-c2ccc(Cl)cc2C(c2c(F)cccc2F)=NC3)cc1`, the Potency is reported as inconclusive: 0.264 µM [cytotoxic, full curve, poor fit]. With `CCOC(=O)C1=C(C)NC2=C(C(=O)CC(C)(C)C2)C1c1ccc(-c2ccccc2)cc1` (stereo not given) the Potency was inconclusive: 20.9 µM [cytotoxic, partial curve]. In the case of `NS(=O)(=O)OC[C@@H]1C[C@@H](n2ccc3c(N[C@H]4CCc5ccccc54)ncnc32)C[C@H]1O`, the Potency is reported as inconclusive: 2.96 µM [cytotoxic, full curve]. With `NC(=O)c1noc([C@H](CCCC2CCCCC2)CC(=O)NO)n1` the Potency was inconclusive: 37.2 µM [cytotoxic, single point]. In the case of `Cc1ncc(-c2ccnc(Nc3ccc(S(C)(=O)=O)cc3)n2)n1C(C)C`, the Potency is reported as active: 2.35 µM. In the case of `COc1ccc(-c2cc3c(C)nc(N)nc3n(C3CCC(OCCO)CC3)c2=O)cn1` (stereo not given), the Potency is reported as active: 0.0148 µM. In the case of `CCc1cc2c(cc1N1CCC(N3CCOCC3)CC1)C(C)(C)c1[nH]c3cc(C#N)ccc3c1C2=O`, the Potency is reported as inconclusive: 0.0105 µM [rising, full curve, poor fit]. With `Cc1cc(CS(=O)(=O)c2ccccc2)cc(OCc2ccc(CN3CCC[C@H]3CO)cc2)c1` the Potency was inconclusive: 4.69 µM [cytotoxic, full curve, poor fit]. For `C#Cc1cccc(Nc2ncnc3cc(OCCOC)c(OCCOC)cc23)c1`, the Potency was inconclusive: 18.7 µM [cytotoxic, partial curve]. For `COc1ccc(C2CNC(=O)C2)cc1OC1CCCC1` (stereo not given), the Potency was “inactive”. In the case of `Oc1cccc(-c2nc(N3CCOCC3)c3oc4ncccc4c3n2)c1`, the Potency is reported as active: 0.0679 µM. In the case of `COc1ccc(-n2nc(C(N)=O)c3c2C(=O)N(c2ccc(N4CCCCC4=O)cc2)CC3)cc1`, the Potency is reported as “inactive”. With `Cn1cnc([N+](=O)[O-])c1Sc1ncnc2nc[nH]c12` the Potency was inconclusive: 9.35 µM [cytotoxic, partial curve, poor fit]. In the case of `CS(=O)(=O)c1ccc([C@@H](O)[C@@H](CO)NC(=O)C(Cl)Cl)cc1`, the Potency is reported as inconclusive: 2.09 µM [cytotoxic, full curve, poor fit]. With `CC(C)N(CC[C@H](c1ccccc1)c1cc(CO)ccc1O)C(C)C` the Potency was “inactive”. With `CNC(=O)c1ccc(N2C(=S)N(c3cnc(C#N)c(C(F)(F)F)c3)C(=O)C23CCC3)cc1F` the Potency was active: 1.05 µM. In the case of `COc1cc(Nc2ncc(F)c(Nc3ccc4c(n3)N(COP(=O)(O)O)C(=O)C(C)(C)O4)n2)cc(OC)c1OC`, the Potency is reported as inconclusive: 37.2 µM [cytotoxic, single point]. With `CC1C(=O)OC2C(O)C34C5CC(C(C)(C)C)C36C(OC(=O)C6O)OC4(C(=O)O5)C12O` (stereo not given) the Potency was “inactive”. In the case of `O=C(CCCN1CCN(c2ccc(F)cc2)CC1)NC1c2ccccc2CSc2ccccc21` (stereo not given), the Potency is reported as active: 18.7 µM. In the case of `O=C(NCC1CN(c2ccc(N3CCOCC3=O)cc2)C(=O)O1)c1ccc(Cl)s1` (stereo not given), the Potency is reported as “inactive”. For `Clc1ccc2c(c1)C(N1CCNCC1)=Nc1ccccc1O2`, the Potency was inconclusive: 37.2 µM [cytotoxic, partial curve, poor fit]. For `O=C(c1ccc(OCCN2CCCCC2)cc1)c1c(-c2ccc(O)cc2)sc2cc(O)ccc12`, the Potency was inconclusive: 37.2 µM [cytotoxic, single point]. In the case of `CC(C)(C)NC(=O)[C@H]1CC[C@H]2[C@@H]3CC[C@H]4NC(=O)C=C[C@]4(C)[C@H]3CC[C@]12C`, the Potency is reported as active: 1.32 µM. For `CCCCCCNC(=O)n1cc(F)c(=O)[nH]c1=O`, the Potency was active: 4.18 µM. With `Nc1ccn([C@@H]2O[C@H](CO)[C@@H](O)C2O)c(=O)n1` (stereo not given in full) the Potency was “inactive”. In the case of `Oc1cc2c(cc1O)C1c3ccc(O)c(O)c3OCC1(O)C2` (stereo not given), the Potency is reported as “inactive”. With `CC(C(C)N1CC(=O)NC(=O)C1)N1CC(=O)NC(=O)C1` (stereo not given) the Potency was inconclusive: 37.2 µM [cytotoxic, single point]. For `CCc1cc(C(N)=S)ccn1`, the Potency was inconclusive: 0.0047 µM [rising, full curve, poor fit]. In the case of `OCc1ccccc1O[C@@H]1O[C@H](CO)[C@H](O)[C@H](O)[C@H]1O`, the Potency is reported as “inactive”. In the case of `CC(=O)O[C@H]1C[C@@H]2CC[C@H]3[C@H]4C[C@H]([N+]5(C)CCCCC5)[C@@H](OC(C)=O)[C@@]4(C)CC[C@@H]3[C@@]2(C)C[C@H]1[N+]1(C)CCCCC1`, the Potency is reported as “inactive”.
